Laboratory results from patent publication US20240165140A1, “MEDICATION FOR INHIBITING DNA-PKCS” (TSINGHUA UNIVERSITY, priority 2017, published 2024).
No constants are given. Whether binding was seen depends on the method and setting. Binding seen in cells or lysates may run through a third protein. Some binding calls cover weakened binding; strength is not graded here.

Amino acid sequences for entries named in this document (tags omitted). A change or cut given only in a name is not applied to a line headed by its entry.
UniProt P78527: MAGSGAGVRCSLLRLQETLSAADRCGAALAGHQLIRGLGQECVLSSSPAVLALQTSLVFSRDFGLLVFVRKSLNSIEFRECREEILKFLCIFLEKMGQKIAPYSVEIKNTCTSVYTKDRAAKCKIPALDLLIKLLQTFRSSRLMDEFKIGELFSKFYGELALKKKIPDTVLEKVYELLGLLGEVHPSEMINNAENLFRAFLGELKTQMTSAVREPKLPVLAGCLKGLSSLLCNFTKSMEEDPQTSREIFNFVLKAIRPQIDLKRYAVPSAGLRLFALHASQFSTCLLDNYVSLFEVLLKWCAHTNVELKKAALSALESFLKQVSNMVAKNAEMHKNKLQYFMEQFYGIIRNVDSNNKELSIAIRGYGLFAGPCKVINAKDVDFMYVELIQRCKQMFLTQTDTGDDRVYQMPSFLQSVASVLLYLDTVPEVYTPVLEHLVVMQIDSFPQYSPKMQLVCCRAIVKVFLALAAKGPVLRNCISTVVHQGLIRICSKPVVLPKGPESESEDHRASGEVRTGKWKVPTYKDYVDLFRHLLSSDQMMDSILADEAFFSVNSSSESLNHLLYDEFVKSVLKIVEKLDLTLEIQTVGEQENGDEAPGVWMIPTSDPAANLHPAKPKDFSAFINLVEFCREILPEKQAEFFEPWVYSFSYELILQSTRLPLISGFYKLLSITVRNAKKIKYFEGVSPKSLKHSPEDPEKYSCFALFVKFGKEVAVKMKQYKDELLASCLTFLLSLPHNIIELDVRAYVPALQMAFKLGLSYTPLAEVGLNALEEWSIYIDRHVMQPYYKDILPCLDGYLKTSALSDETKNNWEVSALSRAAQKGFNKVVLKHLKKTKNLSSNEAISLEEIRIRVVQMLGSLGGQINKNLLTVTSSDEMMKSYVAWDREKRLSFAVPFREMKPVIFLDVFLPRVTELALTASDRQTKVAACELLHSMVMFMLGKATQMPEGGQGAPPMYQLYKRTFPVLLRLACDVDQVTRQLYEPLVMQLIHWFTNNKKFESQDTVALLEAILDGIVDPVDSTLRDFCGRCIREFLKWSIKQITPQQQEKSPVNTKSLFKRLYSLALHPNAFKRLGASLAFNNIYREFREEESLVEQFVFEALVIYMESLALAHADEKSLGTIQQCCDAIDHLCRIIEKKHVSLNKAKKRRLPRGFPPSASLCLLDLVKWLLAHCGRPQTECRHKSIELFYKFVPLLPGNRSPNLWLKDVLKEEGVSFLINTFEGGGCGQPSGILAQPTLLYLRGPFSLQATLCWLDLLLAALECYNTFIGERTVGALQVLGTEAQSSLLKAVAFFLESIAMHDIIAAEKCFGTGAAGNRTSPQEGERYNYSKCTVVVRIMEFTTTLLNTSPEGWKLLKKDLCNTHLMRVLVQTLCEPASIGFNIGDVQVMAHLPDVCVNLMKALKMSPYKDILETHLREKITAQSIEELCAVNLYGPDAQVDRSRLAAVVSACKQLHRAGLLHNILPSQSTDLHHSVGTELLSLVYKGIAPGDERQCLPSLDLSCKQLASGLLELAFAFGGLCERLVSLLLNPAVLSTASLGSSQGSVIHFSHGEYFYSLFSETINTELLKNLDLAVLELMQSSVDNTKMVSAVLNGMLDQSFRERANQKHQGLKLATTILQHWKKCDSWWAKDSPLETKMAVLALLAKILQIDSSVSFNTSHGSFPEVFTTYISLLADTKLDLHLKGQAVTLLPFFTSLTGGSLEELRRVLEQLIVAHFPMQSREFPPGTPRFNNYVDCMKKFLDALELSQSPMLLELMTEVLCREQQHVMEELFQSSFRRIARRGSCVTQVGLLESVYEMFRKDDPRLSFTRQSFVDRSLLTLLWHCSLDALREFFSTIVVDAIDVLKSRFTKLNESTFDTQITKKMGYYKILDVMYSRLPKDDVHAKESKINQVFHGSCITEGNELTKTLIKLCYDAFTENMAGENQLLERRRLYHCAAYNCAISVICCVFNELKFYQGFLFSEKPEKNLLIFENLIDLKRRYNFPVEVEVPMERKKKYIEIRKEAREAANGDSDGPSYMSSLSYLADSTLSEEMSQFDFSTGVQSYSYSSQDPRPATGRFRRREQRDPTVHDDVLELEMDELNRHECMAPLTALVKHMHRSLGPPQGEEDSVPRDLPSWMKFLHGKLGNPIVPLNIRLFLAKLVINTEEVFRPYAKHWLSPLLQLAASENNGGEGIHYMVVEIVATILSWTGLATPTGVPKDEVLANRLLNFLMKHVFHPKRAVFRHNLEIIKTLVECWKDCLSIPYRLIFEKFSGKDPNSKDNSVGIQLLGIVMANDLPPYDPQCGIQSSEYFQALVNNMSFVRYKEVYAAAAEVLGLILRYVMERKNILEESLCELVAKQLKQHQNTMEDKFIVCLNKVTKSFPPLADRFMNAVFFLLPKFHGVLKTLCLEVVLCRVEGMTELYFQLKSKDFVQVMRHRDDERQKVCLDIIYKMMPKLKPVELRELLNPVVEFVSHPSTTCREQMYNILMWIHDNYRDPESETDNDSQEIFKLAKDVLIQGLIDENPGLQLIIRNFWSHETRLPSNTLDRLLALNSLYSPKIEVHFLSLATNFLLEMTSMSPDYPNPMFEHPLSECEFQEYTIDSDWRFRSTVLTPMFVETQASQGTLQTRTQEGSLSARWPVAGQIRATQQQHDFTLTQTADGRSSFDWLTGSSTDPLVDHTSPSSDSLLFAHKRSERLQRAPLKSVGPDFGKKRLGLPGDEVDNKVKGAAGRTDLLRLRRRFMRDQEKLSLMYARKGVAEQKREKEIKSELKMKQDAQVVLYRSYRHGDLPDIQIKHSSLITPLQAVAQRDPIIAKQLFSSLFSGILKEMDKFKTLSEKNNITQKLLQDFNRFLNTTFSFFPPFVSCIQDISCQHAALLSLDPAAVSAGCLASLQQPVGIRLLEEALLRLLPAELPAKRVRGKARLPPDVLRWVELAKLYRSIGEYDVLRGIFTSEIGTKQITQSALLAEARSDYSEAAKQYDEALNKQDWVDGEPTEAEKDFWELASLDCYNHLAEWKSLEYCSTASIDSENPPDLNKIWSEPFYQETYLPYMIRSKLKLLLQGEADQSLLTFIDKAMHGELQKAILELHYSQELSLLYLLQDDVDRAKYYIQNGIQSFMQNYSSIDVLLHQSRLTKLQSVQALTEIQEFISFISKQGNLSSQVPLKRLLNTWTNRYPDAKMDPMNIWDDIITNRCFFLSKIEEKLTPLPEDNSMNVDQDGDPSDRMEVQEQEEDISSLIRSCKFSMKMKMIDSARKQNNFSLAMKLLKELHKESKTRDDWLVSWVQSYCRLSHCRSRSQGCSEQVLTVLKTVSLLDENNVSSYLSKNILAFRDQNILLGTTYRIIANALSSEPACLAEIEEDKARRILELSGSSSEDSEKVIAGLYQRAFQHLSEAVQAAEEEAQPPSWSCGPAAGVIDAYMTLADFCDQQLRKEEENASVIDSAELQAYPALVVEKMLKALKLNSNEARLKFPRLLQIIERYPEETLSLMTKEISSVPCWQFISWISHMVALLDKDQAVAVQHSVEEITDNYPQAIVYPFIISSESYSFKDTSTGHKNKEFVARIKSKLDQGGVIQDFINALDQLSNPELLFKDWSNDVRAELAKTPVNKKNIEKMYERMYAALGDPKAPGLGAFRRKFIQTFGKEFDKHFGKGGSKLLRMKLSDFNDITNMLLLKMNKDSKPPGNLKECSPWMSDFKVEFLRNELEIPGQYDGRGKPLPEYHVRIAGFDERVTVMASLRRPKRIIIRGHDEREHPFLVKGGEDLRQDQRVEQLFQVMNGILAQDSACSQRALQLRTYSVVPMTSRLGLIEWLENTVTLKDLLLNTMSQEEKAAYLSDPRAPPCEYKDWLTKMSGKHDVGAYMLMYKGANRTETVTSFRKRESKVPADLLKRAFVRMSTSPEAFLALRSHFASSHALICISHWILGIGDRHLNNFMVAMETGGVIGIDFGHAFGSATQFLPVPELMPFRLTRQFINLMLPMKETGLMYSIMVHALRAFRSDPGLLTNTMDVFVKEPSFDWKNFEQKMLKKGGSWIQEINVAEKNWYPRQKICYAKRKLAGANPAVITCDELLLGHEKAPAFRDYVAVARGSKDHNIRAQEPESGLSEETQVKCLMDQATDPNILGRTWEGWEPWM
UniProt P39060: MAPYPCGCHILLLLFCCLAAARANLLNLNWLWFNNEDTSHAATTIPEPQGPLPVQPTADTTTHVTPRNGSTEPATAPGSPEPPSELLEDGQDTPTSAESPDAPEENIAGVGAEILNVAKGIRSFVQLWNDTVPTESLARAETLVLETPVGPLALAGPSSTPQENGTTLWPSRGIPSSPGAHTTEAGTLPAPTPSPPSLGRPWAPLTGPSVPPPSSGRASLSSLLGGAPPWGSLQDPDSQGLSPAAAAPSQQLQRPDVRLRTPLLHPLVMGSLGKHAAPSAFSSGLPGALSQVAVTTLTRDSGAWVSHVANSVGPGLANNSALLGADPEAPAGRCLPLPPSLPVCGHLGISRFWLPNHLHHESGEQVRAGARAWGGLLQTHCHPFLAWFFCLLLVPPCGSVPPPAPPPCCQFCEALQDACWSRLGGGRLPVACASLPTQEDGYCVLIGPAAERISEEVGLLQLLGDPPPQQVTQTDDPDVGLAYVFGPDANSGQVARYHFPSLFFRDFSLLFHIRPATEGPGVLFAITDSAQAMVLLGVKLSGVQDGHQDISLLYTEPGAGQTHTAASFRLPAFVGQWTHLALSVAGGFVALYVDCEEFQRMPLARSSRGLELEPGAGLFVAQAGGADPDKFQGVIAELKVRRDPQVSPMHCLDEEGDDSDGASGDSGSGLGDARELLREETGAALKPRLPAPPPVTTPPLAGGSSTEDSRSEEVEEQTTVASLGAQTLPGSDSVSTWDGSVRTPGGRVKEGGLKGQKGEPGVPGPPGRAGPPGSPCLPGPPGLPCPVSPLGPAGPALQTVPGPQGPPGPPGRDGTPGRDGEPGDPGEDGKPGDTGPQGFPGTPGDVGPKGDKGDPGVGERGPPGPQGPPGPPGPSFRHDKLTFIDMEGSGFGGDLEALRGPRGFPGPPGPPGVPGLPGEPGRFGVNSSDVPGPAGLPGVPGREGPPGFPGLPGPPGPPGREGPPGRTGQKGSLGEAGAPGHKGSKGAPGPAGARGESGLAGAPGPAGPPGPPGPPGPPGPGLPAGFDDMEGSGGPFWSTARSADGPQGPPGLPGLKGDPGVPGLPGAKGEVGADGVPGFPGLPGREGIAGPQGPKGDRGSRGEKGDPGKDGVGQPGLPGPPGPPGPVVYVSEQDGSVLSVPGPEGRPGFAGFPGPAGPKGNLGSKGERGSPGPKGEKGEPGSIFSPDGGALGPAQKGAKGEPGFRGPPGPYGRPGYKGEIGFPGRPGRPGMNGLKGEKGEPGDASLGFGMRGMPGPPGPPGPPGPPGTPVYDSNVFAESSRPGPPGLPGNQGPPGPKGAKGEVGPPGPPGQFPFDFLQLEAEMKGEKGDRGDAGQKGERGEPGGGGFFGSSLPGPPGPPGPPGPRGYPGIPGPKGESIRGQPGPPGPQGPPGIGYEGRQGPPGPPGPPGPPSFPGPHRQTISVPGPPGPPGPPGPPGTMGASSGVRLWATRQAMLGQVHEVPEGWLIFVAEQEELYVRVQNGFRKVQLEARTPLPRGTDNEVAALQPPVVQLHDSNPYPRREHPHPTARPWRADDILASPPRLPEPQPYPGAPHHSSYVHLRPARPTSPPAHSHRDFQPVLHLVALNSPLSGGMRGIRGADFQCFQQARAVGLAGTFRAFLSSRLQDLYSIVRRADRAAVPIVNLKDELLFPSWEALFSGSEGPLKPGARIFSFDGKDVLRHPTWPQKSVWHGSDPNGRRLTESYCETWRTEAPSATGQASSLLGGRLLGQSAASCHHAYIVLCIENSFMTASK

What was measured:
[1] = molecular target: DNA-dependent protein kinase catalytic subunit (DNA-PKcs) (UniProt P78527); test: co-immunoprecipitation
[2] = molecular target: DNA-dependent protein kinase catalytic subunit (DNA-PKcs) (UniProt P78527); test: co-immunoprecipitation with anti-DNA-PKcs antibody from H1299 and A549 cells after endostatin uptake, immunoblot
[3] = molecular target: DNA-dependent protein kinase catalytic subunit (DNA-PKcs) (UniProt P78527); test: pull-down from H1299 and A549 cell lysates with endostatin-coupled Sepharose 4B, immunoblot

Measured: binding

recombinant natural human endostatin expressed by E. coli (from UniProt P39060 1572-1754)
binds: all assays above
